By UniProt entry, the sequences of proteins in these tests, tags left out.
UniProt P09471, whole entry, looked up: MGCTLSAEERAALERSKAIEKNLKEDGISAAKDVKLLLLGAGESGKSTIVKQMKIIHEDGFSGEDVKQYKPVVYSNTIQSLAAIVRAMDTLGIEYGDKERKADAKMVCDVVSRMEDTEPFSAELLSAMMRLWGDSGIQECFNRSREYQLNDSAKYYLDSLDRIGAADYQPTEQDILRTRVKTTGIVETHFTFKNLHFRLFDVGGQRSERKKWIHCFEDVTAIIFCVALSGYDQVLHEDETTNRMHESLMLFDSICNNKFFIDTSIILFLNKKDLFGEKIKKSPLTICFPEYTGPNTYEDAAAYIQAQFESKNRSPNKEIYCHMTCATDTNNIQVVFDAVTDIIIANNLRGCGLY

In all, about 220,000 compounds went through this assay and about 770 (0.35%) were called active. The shares of active, inactive and inconclusive entries below differ from those in the screen. Cut-off read from the data, not from the text of the source: active = binding response below about 49% or above about 150%; inconclusive = no clear call, values can overlap the other calls; inactive = in between.
What follows are molecules tested against Guanine nucleotide-binding protein G(o) subunit alpha (Homo sapiens) (UniProt P09471) (assay: RGS7-Galphao binding modulators, primary screen, biochemical, multiplexed bead flow cytometry (AID 1439;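 note: fluorescent Galphao held in activated GDP-AlF4 state binding bead-coupled RGS7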)). Conditions: at 10 µM, actives lie on both sides.
In the case of `O=C(Cc1ccccc1F)OCC(=O)N1CCc2ccccc21`, the binding response (% of control) is reported as inconclusive: 69.2%.
With `N=c1c2c3c(sc2ncn1Nc1ccccc1)CCC3` the binding response (% of control) was inconclusive: 89.9%.
`COc1cccc2c1c(NC(=O)Nc1ccc(F)cc1F)nn2C` was tested, and the binding response (% of control) was inconclusive: -45.1%.
`Cc1ccc(-c2nc3ccccc3[nH]c2=O)cc1` was tested, and the binding response (% of control) was inconclusive: 203%.
`Cc1ccc(NC(=O)C2CCCCC2C(=O)O)cc1C` (configuration not stated) was tested, and the binding response (% of control) was inconclusive: 96.1%.
For `CC(N)c1ccc(Cl)cc1Cl` (configuration not stated), the binding response (% of control) was inactive: 103%.
`Cc1cc(NC(=O)c2ccc(S(=O)(=O)N(C)C)cc2)n(-c2ccccn2)n1` was tested, and the binding response (% of control) was inactive: 122%.
`COc1cccc(CC2(CO)CCN(CC3=CC[C@H]4C[C@@H]3C4(C)C)CC2)c1` was tested, and the binding response (% of control) was inactive: 100%.
For `COc1ccc(NC(=O)c2ccccc2-c2ccccc2)c(C)c1`, the binding response (% of control) was inconclusive: 107%.
`Cc1ccc2nc(-c3ccc(NC(=O)CN4CCN(c5ccccn5)CC4)cc3)sc2c1` was tested, and the binding response (% of control) was inconclusive: 136%.
`Cc1nc(-c2ccc(S(=O)(=O)N3CCN(CCc4ccccc4)CC3)s2)cs1` was tested, and the binding response (% of control) was inconclusive: 135%.
In the case of `CCOC(=O)C(=CNc1nc2ccc(C(=O)OCC)cc2s1)C(=O)OCC`, the binding response (% of control) is reported as inconclusive: 121%.
`O=C(NCC1CCCO1)c1ccc(Oc2ccc([N+](=O)[O-])cc2Cl)cc1` (configuration not stated) was tested, and the binding response (% of control) was inconclusive: 114%.
In the case of `N#CCC(=O)N/N=C/c1ccc(Cl)cc1`, the binding response (% of control) is reported as inconclusive: 126%.
For `COc1ccc(-n2c(-c3ccco3)nc3c(cnn3-c3ccccc3C)c2=O)cc1`, the binding response (% of control) was inconclusive: 80%.
`CN(CCc1ccccn1)C(=O)Nc1ccc(C(C)(C)C)cc1` was tested, and the binding response (% of control) was inconclusive: 115%.
For `CN(C#N)c1nc(Cl)nc(Nc2cccc(Cl)c2)n1`, the binding response (% of control) was inactive: 100%.
`CCC(C)[C@H](NC(=O)Nc1ccccc1F)C(=O)OC` (some centres not stated) was tested, and the binding response (% of control) was inconclusive: 105%.
For `COCCn1c(N)c(N(Cc2ccccc2)C(=O)Cc2c(Cl)cccc2Cl)c(=O)[nH]c1=O`, the binding response (% of control) was inactive: 101%.
`COc1ccc(CN2CCC(C(=O)N3CCN(c4ccccc4F)CC3)CC2)cc1OC` was tested, and the binding response (% of control) was inactive: 141%.
In the case of `CC(=O)NCCCC(=O)NNC1CC(=O)N(c2cccc(Cl)c2)C1=O` (configuration not stated), the binding response (% of control) is reported as inconclusive: 103%.
In the case of `CCOC(=O)c1c(/N=C/C2C(=O)CC(C)(C)CC2=O)sc2c1CCCC2`, the binding response (% of control) is reported as inconclusive: 85.8%.
In the case of `C[C@@]12CCC=C[C@H]1[C@H](c1ccc(C(F)(F)F)cc1)N(Cc1ccccc1)C2=O`, the binding response (% of control) is reported as inconclusive: 94%.
In the case of `CCCCOc1ccc(-c2nnn(CC(=O)NCCc3c[nH]c4ccccc34)n2)cc1`, the binding response (% of control) is reported as inactive: 103%.
In the case of `O=C(c1ccccc1)c1c[nH]c(C(=O)NNc2cccc(Cl)n2)c1`, the binding response (% of control) is reported as inconclusive: 96.9%.
With `O=C(O)CSc1c(O)c2ccccc2[nH]c1=O` the binding response (% of control) was inconclusive: 103%.
`O=C(O)/C=C/c1cn(-c2ccccc2)nc1-c1ccc2c(c1)OCCO2` was tested, and the binding response (% of control) was inconclusive: 150%.
With `COc1ccc2c3c([nH]c2c1)C1(NCC3)C(=O)Nc2ccccc21` (configuration not stated) the binding response (% of control) was inconclusive: 98.7%.
For `CCCn1c(SCC(=O)N2CCc3ccccc32)nnc1-c1ccncc1`, the binding response (% of control) was inactive: 96%.
For `Nc1ccc(NC(=S)Nc2ccccc2)cc1`, the binding response (% of control) was inconclusive: 197%.
In the case of `CCOC(=O)c1cccc(NC(=O)CSc2nc3ccccc3c(=O)n2CCOC)c1`, the binding response (% of control) is reported as active: 13.2%.
`O=[N+]([O-])/C=C\c1ccc(N2CCCC2)c(F)c1` was tested, and the binding response (% of control) was inactive: 104%.
For `Cc1nc(-c2ccc(Cl)cc2)sc1C1(C)CC(c2cccc(F)c2)=NO1` (configuration not stated), the binding response (% of control) was inconclusive: 93.9%.
With `Cc1ccc(C)n1-c1cccc(C(=O)O)c1` the binding response (% of control) was active: 22%.
In the case of `CC(CCc1ccccc1)NC(=O)CCNC(=O)Cn1ccc2ccccc2c1=O` (configuration not stated), the binding response (% of control) is reported as inconclusive: 121%.
With `CCOC(=O)CCCNC(=O)COC(=O)/C=C/c1ccc2c(c1)OCO2` the binding response (% of control) was inconclusive: 71.8%.
For `Cc1cc(C)cc(OCc2ccc(C(=O)NN)o2)c1`, the binding response (% of control) was inconclusive: 5.83%.
For `C/C(=N\Nc1ccc(C(=O)O)cc1)c1ccc(S(=O)(=O)NCc2ccco2)cc1`, the binding response (% of control) was inconclusive: -9.98%.
For `O=C(NCc1ccccc1)c1csc(-c2cccnc2)n1`, the binding response (% of control) was inconclusive: 210%.
For `CCOc1ccc(Nc2nc(Cl)nc(NCCO)n2)cc1`, the binding response (% of control) was inactive: 106%.
With `Nc1c(C(=O)N2CCCC2)sc2nc(-c3ccccc3)ccc12` the binding response (% of control) was inconclusive: 87%.
For `Cc1c(/C=N/NC(=O)c2cccs2)c2ccccc2n1Cc1ccccc1Cl`, the binding response (% of control) was inconclusive: 98.1%.
In the case of `C=CCNCC(=O)Nc1sc2c(c1C(=O)Nc1ccc(OC)cc1OC)CCC2`, the binding response (% of control) is reported as inconclusive: 91%.
With `CCOC(CNC(=O)c1cccc([N+](=O)[O-])c1)OCC` the binding response (% of control) was inconclusive: 107%.
`O=C(Cc1c[nH]c2ccccc12)N/N=C/c1ccc(F)cc1` was tested, and the binding response (% of control) was inactive: 87.5%.
In the case of `S=C1NC2=C(CCCC2=C2SCCS2)C(c2ccccc2)N1` (configuration not stated), the binding response (% of control) is reported as inconclusive: 87.4%.
`Cc1cccn2c(=O)c3cc(C(=O)NCc4ccco4)c(=N)n(CCc4ccccc4)c3nc12` was tested, and the binding response (% of control) was inconclusive: 20.3%.
For `CCOC(=O)c1cc(C)n(-c2ccccc2)c1C`, the binding response (% of control) was inconclusive: 289%.
With `O=S(=O)(c1ccc(-c2ccon2)s1)N1CCN(c2ccccn2)CC1` the binding response (% of control) was inconclusive: -67.7%.
With `O=C(NNC1CC(=O)N(c2ccccc2)C1=O)c1cccnc1` (configuration not stated) the binding response (% of control) was inconclusive: 17.4%.
With `CC(=O)Nc1cccc(NC(=O)C(=O)c2cn(CC(=O)N3CCCCC3)c3ccccc23)c1` the binding response (% of control) was inactive: 106%.
`Cc1cccc(NC(=O)C2(c3cccs3)CCOCC2)n1` was tested, and the binding response (% of control) was inactive: 99.7%.
With `COc1cc(C(=O)OC(C)CN2CCCC2)cc(OC)c1OC` (configuration not stated) the binding response (% of control) was active: 43.8%.
In the case of `COc1ccc(/C=N/Nc2nc(-c3cccnc3)nc3ccccc23)c(OC)c1`, the binding response (% of control) is reported as inconclusive: 26.8%.
For `CS(=O)(=O)c1ccc2nc(NC(=O)c3ccc(=O)[nH]c3)sc2c1`, the binding response (% of control) was inconclusive: 61%.
In the case of `CCOC(=O)C1CCN(Cc2nc3ccc([N+](=O)[O-])cc3c(=O)n2-c2ccc(OC)cc2OC)CC1`, the binding response (% of control) is reported as inconclusive: 105%.
For `COc1ccc(OC)c2[nH]c(=O)c(CCNC(=O)Cc3cccs3)cc12`, the binding response (% of control) was inactive: 88.3%.
With `CC(C)(C)NC(=S)N/N=C/c1c(Cl)cccc1Cl` the binding response (% of control) was inconclusive: 101%.
In the case of `Cc1ccc(-c2nc3c(c(=O)[nH]c(=O)n3Cc3ccccc3)n2C)s1`, the binding response (% of control) is reported as inconclusive: 109%.
`CC(=O)Nc1ccc(S(=O)(=O)NCC(=O)OCC(=O)N2CCN(c3ccccc3)CC2)cc1` was tested, and the binding response (% of control) was inactive: 79.4%.
For `CN1CCCN(C(=O)CC(c2ccccc2)c2ccccc2)CC1`, the binding response (% of control) was inconclusive: 115%.
`Cc1c(S(=O)(=O)N2CCN(c3ccccc3)CC2)c(=O)n(C)c(=O)n1C` was tested, and the binding response (% of control) was inconclusive: 880%.
For `Cc1ccc(Nc2cc(C)c3c(O)cccc3n2)cc1C`, the binding response (% of control) was inconclusive: 118%.
For `CCCn1c(SCC(=O)Nc2cccc(Cl)c2Cl)n[nH]c1=O`, the binding response (% of control) was inactive: 103%.
In the case of `C=CCn1c(SCC(=O)N2N=C(c3ccco3)CC2c2ccco2)nnc1-c1ccncc1` (configuration not stated), the binding response (% of control) is reported as inactive: 92%.
For `COc1cc(/C=C(\NC(=O)c2ccccc2)C(=O)N2CC3CC(C2)c2cccc(=O)n2C3)cc(OC)c1OC` (configuration not stated), the binding response (% of control) was inconclusive: 108%.
`CCN(CC)CCCNc1nc(-n2nc(C)cc2C)nc2sc3c(c12)CC(C)(C)OC3` was tested, and the binding response (% of control) was inconclusive: 104%.
`O=C(COc1ccc(Br)cc1)NCc1cn2ccccc2n1` was tested, and the binding response (% of control) was inconclusive: 114%.
With `CCc1cc2cc(C)cc(C)c2nc1Cl` the binding response (% of control) was inconclusive: 115%.
For `CCOc1ccc(C2C(C#N)=C(N)Oc3cc(C)[nH]c(=O)c32)cc1OC` (configuration not stated), the binding response (% of control) was inconclusive: 123%.
In the case of `COc1cc2c(cc1OC)C(c1cccs1)N(C(=S)NC(C)C)CC2` (configuration not stated), the binding response (% of control) is reported as inactive: 92.7%.
`C=CCN(c1ccc(C(=O)Nc2cccc([N+](=O)[O-])c2)cc1)S(C)(=O)=O` was tested, and the binding response (% of control) was inactive: 100%.
In the case of `COc1ccc(/C=C/CN2CCN(Cc3ccc(F)cc3)C(CCO)C2)cc1` (configuration not stated), the binding response (% of control) is reported as inactive: 88.6%.
For `Cn1c2ccccc2c2c(C(=O)N3CCN(c4ccccn4)CC3)cn(C3CCCC3)c(=O)c21`, the binding response (% of control) was inactive: 103%.
With `O=C(CCC1CCCCC1)NCCN1C2=NC[C@@H](Cc3ccccc3)N2C[C@H]1Cc1ccc(O)cc1` the binding response (% of control) was inactive: 99.3%.
With `Cc1ccnc2ccc(P(=O)(c3ccccc3)c3ccccc3)cc12` the binding response (% of control) was inconclusive: 82.9%.
In the case of `O=C(NNC(=S)NC1CCCCC1)c1ccccc1Cl`, the binding response (% of control) is reported as inconclusive: 92.7%.
With `O=C(Cc1ccccc1)N/N=C/c1ccc[nH]1` the binding response (% of control) was inconclusive: 99.9%.
In the case of `COc1ccc(/C(C#N)=C/c2cccnc2)cc1`, the binding response (% of control) is reported as inconclusive: 96.3%.
`CCn1c(O)c(N=NC(=S)NCC2CCCO2)c2ccccc21` (configuration not stated) was tested, and the binding response (% of control) was inconclusive: 94.6%.
For `CCCCNCc1cc(OCC)c(OCC)cc1Br`, the binding response (% of control) was inactive: 90.8%.
For `COc1ccc(CCN2C(=O)CC(C(N)=O)SC2=Nc2ccccc2)cc1` (configuration not stated), the binding response (% of control) was inconclusive: 110%.
For `C=CCN1C=C2C(=O)C(C)(OC(=O)C3CCCC3)C(=O)C=C2C=C1c1ccsc1` (configuration not stated), the binding response (% of control) was inconclusive: 72.3%.
For `CCc1c(C(=O)Nc2ccccc2)c(C)[nH]c(=S)c1C#N`, the binding response (% of control) was inactive: 102%.
For `CN(C)CCNC(=O)COc1ccc(C23CC4CC(CC(C4)C2)C3)cc1`, the binding response (% of control) was inconclusive: 96.9%.
In the case of `Cc1nc(SCc2ccc(F)cc2)c2oc3ccccc3c2n1`, the binding response (% of control) is reported as inconclusive: 105%.
With `NS(=O)(=O)c1ccc(NC(=O)CN2CCCc3ccccc32)cc1` the binding response (% of control) was inconclusive: 153%.
For `CNc1ccc(/C=C(\C#N)c2ccccn2)cc1[N+](=O)[O-]`, the binding response (% of control) was inconclusive: 75.8%.
In the case of `CNC(=S)N/N=C/c1c(C)cccc1Cl`, the binding response (% of control) is reported as inconclusive: 70.2%.
With `CC1CC(C)(C)OC(C[N+]2(C)CCCCC2)O1` (configuration not stated) the binding response (% of control) was inconclusive: 255%.
For `CC1(C)CC(=O)C(C=NCCN2CCN(C(=O)CCl)CC2)=C(O)C1`, the binding response (% of control) was inconclusive: 116%.
In the case of `COC(C[C@@H](O)[C@@H](C)[C@@H](O)COCc1ccccc1)OC`, the binding response (% of control) is reported as inconclusive: 75.6%.

— PubChem BioAssay AID1439 (NMMLSC, 2008)
